Data taken from the supplement of paper PMC3334620.
The full ranking holds about 33,000 sequences; the median of “E-score (-0.5 to 0.5)” is about -0.0059, and the highest 2% start at about 0.26. This is one part of the list.

biological target: T1, Cin5 (UniProt P40917); assay: PBM E-score (8-mer binding enrichment) (E-score (-0.5 to 0.5)); higher = stronger / more preferred TF binding; settings: protein concentration: 100 nM; construct: GST-full length
T1 sequence: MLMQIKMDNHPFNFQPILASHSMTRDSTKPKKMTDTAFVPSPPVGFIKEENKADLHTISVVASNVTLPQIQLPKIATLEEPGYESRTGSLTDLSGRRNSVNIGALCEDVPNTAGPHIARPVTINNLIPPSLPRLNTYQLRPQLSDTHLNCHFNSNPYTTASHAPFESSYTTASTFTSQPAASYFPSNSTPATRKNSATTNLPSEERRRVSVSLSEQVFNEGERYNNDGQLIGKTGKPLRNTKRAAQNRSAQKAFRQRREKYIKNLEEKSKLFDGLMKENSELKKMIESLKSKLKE
In short: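 Masliner-normalised scans of fluorescent anti-GST signal were the basis for scoring. That signal came from GST-tagged yeast transcription factors applied at about 100-200 nM to double-stranded universal all-10-mer Agilent arrays on fresh or once-stripped slides. Each ungapped eight-base word, pooled with its reverse complement, received an E-score from the Universal PBM Analysis Suite.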

Compared with GAAATTGC, CCCGAGAC is lower in “PBM E-score” value: 0.0508 for the first, -0.112 for the second.

Compared with AAACCACG, ACCTGCAC is lower in “PBM E-score” value: -0.00291 for the first, -0.0537 for the second.

First: GGGGGAAC
Second: CATATCGC
The “PBM E-score” value of the first is lower: -0.38 for the first, 0.0489 for the second.

Going from CGGTGGTA to GTAGGTCA, the “PBM E-score” value falls from -0.0177 to -0.136.

Going from GACATCCA to GAGTTGGA, the “PBM E-score” value rises from -0.0638 to 0.0467.

Compared with GAGGCAGC, GCCAATCA is lower in “PBM E-score” value: -0.103 for the first, -0.117 for the second.

Going from AGGACTGA to AGTCATTA, the “PBM E-score” value falls from -0.00068 to -0.0964.

Going from CGCTAAGC to ACAGAGAC, the “PBM E-score” value rises from 0.00361 to 0.0455.

Compared with ACACTCGC, ACACGCTA is lower in “PBM E-score” value: 0.185 for the first, -0.134 for the second.

First: GCGACTTA
Second: AGTCATGA
The “PBM E-score” value of the first is lower: -0.138 for the first, 0.131 for the second.

Going from CTCCGTAC to CGATAAAG, the “PBM E-score” value falls from 0.0128 to -0.0177.

Compared with AGCCAGAG, CAATGTAG is higher in “PBM E-score” value: -0.148 for the first, -0.0775 for the second.

Compared with GACGTAGA, AGGTCACC is lower in “PBM E-score” value: -0.189 for the first, -0.246 for the second.

Going from ACCCAGCT to AGATCATG, the “PBM E-score” value rises from -0.00117 to 0.057.

First: ACGCCGGG
Second: AAGTGCAC
The “PBM E-score” value of the first is lower: -0.16 for the first, 0.185 for the second.

Going from CCTGTCTC to AATAATAC, the “PBM E-score” value rises from -0.214 to 0.181.

First: TACAGGCA
Second: GTGTACAC
The “PBM E-score” value of the first is lower: -0.0233 for the first, -0.0165 for the second.

Compared with CGTGTTAC, AGGGCATA is lower in “PBM E-score” value: 0.0926 for the first, -0.0258 for the second.

Compared with GTGAGTAA, GTATAATA is higher in “PBM E-score” value: 0.0772 for the first, 0.253 for the second.

First: ATTGATTA
Second: ATTAAATC
The “PBM E-score” value of the first is higher: 0.317 for the first, 0.205 for the second.

First: ACGTCGCC
Second: GTCCTAAA
The “PBM E-score” value of the first is lower: -0.123 for the first, -0.0994 for the second.

Compared with ACCGGGGG, ACCCTTTG is higher in “PBM E-score” value: -0.337 for the first, -0.164 for the second.

First: CCACCAGG
Second: AGTAGGGC
The “PBM E-score” value of the first is lower: -0.278 for the first, -0.0574 for the second.

Compared with CGTTTTAC, AACGGGAT is higher in “PBM E-score” value: -0.058 for the first, 0.0784 for the second.

Going from CTACGCCC to CTATAAAC, the “PBM E-score” value rises from -0.0718 to -0.00307.

Going from TAGTTCGA to CAGTACGA, the “PBM E-score” value rises from 0.0579 to 0.103.

Compared with CTAGATTA, ACCGAAAC is lower in “PBM E-score” value: 0.223 for the first, 0.0166 for the second.

First: TCCAACGA
Second: CTTAGGGC
The “PBM E-score” value of the first is higher: -0.151 for the first, -0.208 for the second.

Going from ATTGTGCC to CAAAGTCG, the “PBM E-score” value rises from -0.0501 to -0.0483.

Going from AGTGGTAG to GCGCGAAC, the “PBM E-score” value rises from -0.0919 to -0.0137.

First: ATGGTAGG
Second: ATGAGTTA
The “PBM E-score” value of the first is lower: -0.0925 for the first, 0.0342 for the second.

Compared with TTCCAAAA, CGCGGGTA is higher in “PBM E-score” value: -0.149 for the first, 0.152 for the second.

Compared with AACGACTG, ATACTAGA is higher in “PBM E-score” value: 0.0392 for the first, 0.142 for the second.

Compared with CACCTACG, AGCTGCAT is lower in “PBM E-score” value: -0.00197 for the first, -0.0932 for the second.

First: AGTAGGAT
Second: AAATTTCC
The “PBM E-score” value of the first is lower: -0.0168 for the first, 0.0375 for the second.

Compared with ACAAATGT, GAGGAAGA is lower in “PBM E-score” value: 0.0871 for the first, -0.0861 for the second.

Going from CAGCAAGG to GTTCCATA, the “PBM E-score” value rises from -0.168 to 0.0652.

Compared with CAGAATTA, CAGTGGCA is lower in “PBM E-score” value: 0.0194 for the first, -0.108 for the second.

First: AGGGATGA
Second: CGAAGTAA
The “PBM E-score” value of the first is lower: 0.01 for the first, 0.151 for the second.

Going from ATGGCCCC to GCGATACA, the “PBM E-score” value rises from -0.221 to -0.00898.

First: ATATCAAT
Second: ACATCTGA
The “PBM E-score” value of the first is higher: 0.205 for the first, -0.25 for the second.

First: CCGCGCTA
Second: AATTGCAT
The “PBM E-score” value of the first is lower: 0.0777 for the first, 0.157 for the second.

First: ATCCTCTG
Second: CTAGATAA
The “PBM E-score” value of the first is lower: 0.0169 for the first, 0.0277 for the second.

First: ACGTGTAT
Second: AACACTAG
The “PBM E-score” value of the first is higher: 0.179 for the first, 0.172 for the second.

Going from ATACGGCA to ACTGTGCC, the “PBM E-score” value falls from 0.151 to -0.154.

Compared with AAGATCCG, GGTTTAGA is higher in “PBM E-score” value: -0.113 for the first, -0.0277 for the second.

Going from CTAACGAC to CGAGGCCC, the “PBM E-score” value falls from -0.103 to -0.167.

First: GGACAACC
Second: ATCCATGC
The “PBM E-score” value of the first is lower: -0.17 for the first, -0.0259 for the second.

Going from CCAACGTA to CCCTGAGA, the “PBM E-score” value falls from 0.00541 to -0.132.

Going from TACGCAGA to TGAAACAA, the “PBM E-score” value falls from 0.0978 to 0.0672.

Going from AACCTCCG to CGTAAGAC, the “PBM E-score” value rises from -0.183 to 0.0208.

Compared with GCGTCCCA, AAAGCCCT is higher in “PBM E-score” value: -0.176 for the first, -0.168 for the second.

Going from TAGTATAA to ATCTGGGG, the “PBM E-score” value falls from 0.101 to -0.123.

Compared with GATGTGGC, CTCGCGTA is higher in “PBM E-score” value: -0.102 for the first, -0.0518 for the second.

First: CCAGGACC
Second: GTGTACCA
The “PBM E-score” value of the first is lower: -0.188 for the first, -0.0106 for the second.

Compared with ATTCACTA, TATATCGA is lower in “PBM E-score” value: 0.206 for the first, 0.203 for the second.

First: GAGCGGAC
Second: ACCATTAC
The “PBM E-score” value of the first is lower: -0.251 for the first, 0.0454 for the second.

Going from CCAACCCC to CAACGTGG, the “PBM E-score” value falls from -0.0486 to -0.0906.

Going from TGCACCCA to CGAAAGCA, the “PBM E-score” value rises from 0.0314 to 0.104.

First: CATTGTCA
Second: GACTTCTC
The “PBM E-score” value of the first is higher: 0.0649 for the first, -0.0136 for the second.

Going from ATAGGGTC to AGGTAGAC, the “PBM E-score” value rises from -0.0726 to -0.0252.

Compared with AGGACAAT, ATGCATTA is higher in “PBM E-score” value: 0.115 for the first, 0.341 for the second.

Going from GATAGCAA to ACTGAGCC, the “PBM E-score” value falls from 0.279 to -0.101.

Going from CCGTTATA to ACACAGAG, the “PBM E-score” value falls from 0.0331 to 0.0184.

Going from GAGTCAGA to AACTCCGA, the “PBM E-score” value falls from -0.0391 to -0.135.

First: ACTAACAG
Second: AGTGTTAA
The “PBM E-score” value of the first is lower: 0.198 for the first, 0.202 for the second.

First: CCAATTAA
Second: AAAAACGG
The “PBM E-score” value of the first is higher: 0.154 for the first, 0.0031 for the second.

First: AGAGGAAA
Second: CTGTAGAA
The “PBM E-score” value of the first is higher: 0.0227 for the first, -0.0177 for the second.

Going from CAATAAAA to CCGGCTGC, the “PBM E-score” value falls from 0.141 to -0.134.

Compared with AATCTCTG, CTGATGGA is higher in “PBM E-score” value: -0.129 for the first, 0.0384 for the second.

Compared with AGAGAGAA, AAAAGGCC is lower in “PBM E-score” value: -0.12 for the first, -0.183 for the second.

Going from AGTCTGAA to ACGCCTTG, the “PBM E-score” value falls from -0.00268 to -0.0542.

First: AAAGCTTT
Second: ATAGTCTC
The “PBM E-score” value of the first is lower: -0.056 for the first, 0.041 for the second.

Compared with AAAACAGT, ACAGCCCG is lower in “PBM E-score” value: 0.226 for the first, -0.18 for the second.

Going from AGTACGGA to ACTCAGAC, the “PBM E-score” value falls from 0.224 to -0.0116.

Compared with CAGTGCCG, GCAGATTA is higher in “PBM E-score” value: -0.0996 for the first, 0.129 for the second.

First: AATTATTC
Second: CGGGGTAG
The “PBM E-score” value of the first is higher: 0.19 for the first, -0.0489 for the second.

First: AGCTAAGG
Second: ACCACCAC
The “PBM E-score” value of the first is lower: -0.264 for the first, 0.0127 for the second.

Compared with AGAAATTC, AAATCGCA is higher in “PBM E-score” value: -0.0475 for the first, 0.0889 for the second.

Compared with CCTTGTGA, CGCTGCCC is lower in “PBM E-score” value: -0.0498 for the first, -0.265 for the second.

Going from CGGTTTCA to CAAGGTGG, the “PBM E-score” value falls from 0.00702 to -0.0819.

First: CACAACGA
Second: AGGGCGCA
The “PBM E-score” value of the first is higher: -0.00952 for the first, -0.137 for the second.

First: CTGAGCGA
Second: GAGGCCTA
The “PBM E-score” value of the first is higher: -0.021 for the first, -0.142 for the second.

Going from ATGGAGGA to CAGGGTCA, the “PBM E-score” value falls from -0.0744 to -0.197.

Compared with CACGTATC, ACAATCCG is higher in “PBM E-score” value: 0.0779 for the first, 0.106 for the second.

Going from GGTAAAAC to CAAACCTG, the “PBM E-score” value rises from -0.00986 to -0.00972.
